Laboratory results published in patent publication US20170046476A1, “SYSTEMS, APPARATUS, AND METHODS FOR ANALYZING AND PREDICTING CELLULAR PATHWAYS” (priority 2015, published 2017).
Values joined by “and” are separate entries in the source; they are usually repeats but may differ in a detail not shown here. Identical values can stand only once.

Tested on: STHdh cell line model of Huntington's disease
Assay: Global (untargeted) lipid profiling by LC-MS, STHdh Q111 vs STHdh Q7 cells
Type: cell-based, mouse
Details: ratio of LC-MS feature level in STHdh Q7 vs STHdh Q111 cells; positive mode feature (mode_m/z_RT), mass matched to potential metabolites in the PPMI network

Compound | Q7/Q111
CCCCCCCC/C=C\CCCCCCCC(=O)OC(COC(=O)CCCCCCCCCCCCCCCCC)COC(=O)CCCCCCCCCCCCCCCCC | 6.574
CCCCC/C=C\C/C=C\CCO [(Z,Z)-3,6-Dodecadien-1-ol] | 7.424
CCCCCCCC/C=C\CCCCCCCC(=O)O[C@H](COC(=O)CCCCCCCCCCCCCCC)COC(=O)CCCCCCCCCCCCCCCCCCC [TG(16:0/18:1(9Z)/20:0)[iso6]] | 6.574
CCCCC/C=C(/C=O)CCCC [(E)-2-Butyl-2-octenal] | 7.424
CCCCCCCCCC=CC=O [2-Dodecenal] | 7.424
CCCCCCCC/C=C\CCCCCCCC(=O)OCC(COC(=O)CCCCCCCCCCCCCCCCC)OC(=O)CCCCCCCCCCCCCCCCC (stereo not shown) | 6.574
CCCCCCCC/C=C\CCCCCCCCCC(=O)OC[C@@H](COC(=O)CCCCCCCCCCCCCCC)OC(=O)CCCCCCCCCCCCCCCCC [TG(16:0/18:0/20:1(11Z))[iso6]] | 6.574

Same assay, conditions: ratio of LC-MS metabolite feature level, STHdh Q7 vs STHdh Q111 cells; feature (mode_m/z_RT) matched by mass to potential metabolites; P-value ≦0.01

Compound | Q7/Q111
CCCCCCCCC=CCCCCCCCCCCCCCC(=O)O [15-tetracosenoate] | 4.414
CC(=O)OCCC(C)CCC=C(C)C (stereo not shown) [Citronellyl acetate] | 0.2707
CCC=CCC1OC1CC=CCCCCCCCC(=O)O (stereo not shown) [12,13-Epoxy-9,15-octadecadienoic acid] | 0.1468
CCCCC/C=C\CCCOC(C)=O [cis-4-Decenyl acetate] | 0.2707
O=C1CCCCCCC/C=C\CCCCCCO1 [Isoambrettolide] | 0.3138
CCCCCCCCCCCCCC(=O)OC1CCC2(C)C(CCC3(C)C2CCC2C4C(C)C(C)=CCC4(C)C(O)CC23C)C1(C)C (stereo not shown) [Faradiol myristate] | 5.92
CC(C=CC=C(C)C(O)CO)=CC=C1C(C)=CCCC1(C)C (stereo not shown) [14-hydroxy-4,14-retro-retinol] | 2.729
C=C(C)CCCC(C)CCOC(C)=O (stereo not shown) [Rhodinyl acetate] | 0.2707
CCCCC/C=C\C/C=C\C/C=C\CCCCCCC(=O)O [Dihomo-gamma-linolenate] | 0.3387
CC1CCCC2(C)CCCCC12O (stereo not shown) [Geosmin] | 7.424
CCCCCCCCCCCCCCCCCCCCCCCC(=O)O [lignocerate] | 3.402
C=CC(C)(CCC=C(C)C)OC(=O)CCC (stereo not shown) [Linalyl butyrate] | 0.1814
O=C1CCCC/C=C/CCCCCCCCCO1 [D6-Ambrettolide] | 0.3138
CC(C=CC1=C(C)CCCC1(C)C)=CC=CC1(C)OC1CO (stereo not shown) [13,14-epoxy-retinol] | 2.729
CC/C=C\CCOC(=O)CCCCC [cis-3-Hexenyl hexanoate] | 0.2707
CCCCCCCC/C=C\CCCCCCCCCCCCCC(=O)N[C@@H](CO)[C@H](O)/C=C/CCCCCCCCCCCCC [Cer(d18:1/24:1(15Z))] | 7.952
CC/C=C\C/C=C\C/C=C\CCCCCCC(O)C(=O)O (stereo not shown) [2-Hydroxylinolenic acid] | 0.1468
CC(O)/C=C\C/C=C\C/C=C\CCCCCCCC(=O)O (stereo not shown) [17-Hydroxylinolenic acid] | 0.1468
CCCCCCCCCCCCC/C=C/[C@@H](O)[C@H](CO)NC(=O)CCCCCCCCCCCCCCC [Ceramide (d18:1/16:0)] | 9.456
C=CCC(C)C(=O)OCCCCCC (stereo not shown) [Hexyl 2-methyl-4-pentenoate] | 0.2707
CCCCCCCCCCCCCCCC(O)CC(O)CO (stereo not shown) [1,2,4-Nonadecanetriol] | 0.2648 and 0.2181

Compound | Q7/Q111
CC(C)=CCCC(C)CCOCC=O (stereo not shown) | 0.2707
Hexyl 2E-hexenoate | 0.2707
COc1cc(O)c2c(=O)c(-c3ccc(O)c(O)c3)coc2c1 [Santal] | 6.631
CCCCCC1C=CC(=O)CCCCCCCCC(=O)O1 (stereo not shown) [10-Oxo-11-octadecen-13-olide] | 0.1468
O=C1CCCCC/C=C\CCCCCCCCO1 [(Z)-7-Hexadecen-1,16-olide] | 0.3138
CCCCCCCCCCCCC/C=C/[C@@H](O)[C@H](CO)NC(=O)CCCCCCCCCCCCCCCCCCCCCCC [N-Lignoceroylsphingosine] | 9.407
O=C1CCCCCCCCCCC1 [Cyclododecanone] | 7.424
CC(C)=CCC/C(C)=C/COC(=O)C(C)C [Geranyl 2-methylpropanoate] | 0.1814
C=CCCCCCCCCC(=O)OCC=C [Allyl undecylenate] | 0.1814
CCCCCCCC=CC(=O)OCC [Ethyl 2-decenoate] | 0.2707
CC(O)CCCCCC(=O)O (stereo not shown) [7-Hydroxyoctanoic acid] | 0.2033
CCCCCC=CCCC(=O)OCC [Ethyl 4-decenoate] | 0.2707
CC/C=C\C/C=C\C=C\[C@@H](O)CCCCCCCC(=O)O | 0.1468
CCCC(=O)OC1CC2CCC1(C)C2(C)C (stereo not shown) [Bornyl butyrate] | 0.1814
COc1ccc(-c2oc3cc(O)cc(O)c3c(=O)c2O)cc1 [Kaempferide] | 6.631
CCCCCC[C@@H](O)C(=O)O [(R)-2-Hydroxycaprylic acid] | 0.2033
CCCCC/C=C\C/C=C\CCCC(=O)OCC [Ethyl (Z,Z)-5,8-tetradecadienoate] | 0.3138
COc1ccc(-c2coc3cc(O)cc(O)c3c2=O)cc1O [Pratensein] | 6.631
CCCCCC=CCC=CCCCC(=O)O [5,8-Tetradecadienoic acid] | 0.1814
C=CC(C)(CCC=C(C)C)OC(=O)CCCCC (stereo not shown) [Linalyl hexanoate] | 0.3138
CCCCCC(=O)/C=C/C=C\CCCCCCCC(=O)O [13-OxoODE] | 0.1468

Compound | Q7/Q111
CCCC(=O)OC(C)(C)C1CC=C(C)CC1 (stereo not drawn) [alpha-Terpineol butanoate] | 0.1814
CCC1(O)C2(C)CCC(C2)C1(C)C (stereo not shown) [2-Ethyl-1,3,3-trimethyl-2-norbornanol] | 7.424
COc1cc(O)cc2occ(-c3ccc(O)cc3O)c(=O)c12 [Barpisoflavone A] | 6.631
CCCCCCCCC/C=C/C(=O)O [trans-Dodec-2-enoic acid] | 0.2707
CC(=O)OCCC(C)CCC=C(C)C (racemic) [(±)-Citronellyl acetate] | 0.2707
CCCCC/C=C\C/C=C\CCCCCC(=O)O [7Z,10Z-Hexadecadienoic acid] | 0.3138
CCCCCCCC/C=C\CCCCCCCCCCCCCC(=O)O [nervonate] | 4.414
CC(C)C(=O)O[C@@H]1C[C@H]2CC[C@]1(C)C2(C)C [Isobornyl isobutyrate] | 0.1814
CCCCC/C=C\C=C\C(=O)CCCCCCCC(=O)O [9-OxoODE] | 0.1468
CC(C)=CCC[C@@H](C)[C@H]1CC[C@H]2C3=C(CC[C@]12C)[C@@]1(C)CCC(=O)C[C@@H]1CC3 [zymosterol intermediate 2] | 0.1032
CCCCCCCC1CCCC(=O)O1 (stereo not shown) [xi-5-Dodecanolide] | 0.2707
CC/C=C\CC(O)/C=C/C=C\CCCCCCCC(=O)O (stereo not shown) [13-HOTE] | 0.1468
CCCCCCCCCCCCCC=CC(O)C(COC1OC(CO)C(O)C(O)C1O)NC(=O)CCCCCCCCCCCCCCC (stereo not shown) [Glucosylceramide (d18:1/16:0)] | 0.3855
CC=CCCCCCCCC(=O)OC [Methyl 9-undecenoate] | 0.2707
CCCCCCCC1CC(C)OC1=O (stereo not shown) [3-Heptyldihydro-5-methyl-2(3H)-furanone] | 0.2707
CCCCCC(O)CC(=O)O (stereo not shown) [3-Hydroxyoctanoic acid] | 0.2033
CCCCCCCC(=O)OO [Peroxyoctanoic acid] | 0.2033
CCC(CC)C(=O)OC/C=C(\C)CCC=C(C)C [Geranyl 2-ethylbutyrate] | 0.3138
CCCC(CCCO)C(=O)O (stereo not shown) [5-Hydroxyvalproic acid] | 0.2033
COC(C=C(C)CCC=C(C)C)OC [1,1-Dimethoxy-3,7-dimethyl-2,6-octadiene] | 0.2707
CCCCC1(CCCC)CCC(=O)O1 [5,5-Dibutyl-4,5-dihydro-2(3H)furanone] | 0.2707

Compound | Q7/Q111
CCC(O)/C=C/C=C\C/C=C\CCCCCCCC(=O)O (stereo not shown) | 0.1468
CCOC(=O)C(O)C(C)CC (racemic) [(+/−)-Ethyl 2-hydroxy-3-methylvalerate] | 0.2033
COc1cc(-c2cc(=O)c3c(O)cc(O)cc3o2)ccc1O [Chrysoeriol] | 6.631
C=CCCCCCCCCCC(=O)O [11-Dodecenoic acid] | 0.2707
CC(=O)OC(C)C(C)=CC1C(C)=CCCC1(C)C (stereo not drawn) [3-Methyl-alpha-ionyl acetate] | 0.2629
O=C1c2c(cc3c(c2O)OCO3)OC(c2ccccc2)C1O (stereo not shown) | 6.631
COc1ccc(-c2cc(=O)c3c(O)cc(O)c(O)c3o2)cc1 [Takakin] | 6.631
CCCC(=O)OC/C=C(/C)CCC=C(C)C [Neryl butyrate] | 0.1814
CC(C)=CCC[C@@H](C)[C@H]1CC[C@H]2C3=CC=C4C[C@@H](O)CC[C@]4(C)[C@H]3CC[C@]12C [7-dehydrodesmosterol] | 0.1032
CCCCCCCCCCCCC/C=C\C(O)C(CO[C@@H]1O[C@H](CO)[C@H](O)[C@H](O)[C@H]1O)NC(=O)CCCCCCCCCCCCCCC (stereo partly shown) [Galactosylceramide (d18:1/16:0)] | 0.3855
CCCCC[C@@H](O)CC(=O)O [(R)-3-Hydroxyoctanoic acid] | 0.2033
CC1C=C(CCCCCCCCCCCCC=O)C(=O)O1 (stereo not shown) [Squamostanal A] | 0.1468
CC[C@@H]1O[C@@H]1C/C=C\C/C=C\CCCCCCCC(=O)O [15(16)-EpODE] | 0.1468
CCCCCCC1CCCCC(=O)O1 (stereo not shown) [7-Hexyl-2-oxepanone] | 0.2707
CCCC(O)CC(=O)OCC (racemic) [Ethyl (±)-3-hydroxyhexanoate] | 0.2033
CC1=C(/C=C/C(C)=C/C=C/C(C)=C/CO)C(C)(C)CCC1O (stereo not shown) [4-hydroxyvitamin A1] | 2.729
CCCCCC(=O)OC/C=C(\C)CCC=C(C)C [Geranyl hexanoate] | 0.3138
C=CCOC(=O)CCCCCCCC [Allyl nonanoate] | 0.2707
